The target of this assay is cynomolgus monkey BCMA protein (cynomolgus monkey). Briefly: bridging ELISA, coated antigen.

The values that follow come from patent US20240301063A1 (SHANDONG NEW TIME PHARMACEUTICAL, published 2024).

Results are given in words; binding and its absence hold for the method and conditions named. Some results given as binding are weak or reduced against the parent protein; the word gives no strength.

B1: bispecific antibody AP163 (bispecific antibody)
chain: QVQLVQSGAEVKKPGSSVKVSCKASGGTFSNYWMHWVRQAPGQGLEWMGATYRGHSDTYYNQKFKGRVTITADKSTSTAYMELSSLRSEDTAVYYCARGAIYDGYDVLDNWGQGTLVTVSSGGGGSGGGGSGGGGSDIQMTQSPSSLSASVGDRVTITCSASQDISNYLNWYQQKPGKAPKLLIYYTSNLHSGVPSRFSGSGSGTDFTLTISSLQPEDFATYYCQQYRKLPWTFGQGTKLEIKGGGGGGSGGGGSGGGGSSSSSKAPPPSEVQLLESGGGLVQPGGSLKLSCAASGFTFNTYAMNWVRQAPGKGLEWVARIRSKYNNYATYYADSVKDRFTISRDDSKNTAYLQMNNLKTEDTAVYYCVRHGNFGNSYVSWFAYWGQGTLVTVSSGGGGSGGGGSGGGGSELVVTQEPSLTVSPGGTVTLTCRSSTGAVTTSNYANWVQQKPGQAPRGLIGGTNKRAPGTPARFSGSLLGGKAALTLSGVQPEDEAEYYCALWYSNLWVFGGGTKLTVLDKTHTCPPCPAPEAAGGPSVFLFPPKPKDQLMISRTPEVTCVVVDVSHEDPEVKFNWYVDGVEVHNAKTKPREEQYASTYRVVSVLTVLHQDWLNGKEYKCKVSNKALPASIEKTISKAKGQPREPQVYTLPPSRDELTKNQVSLTCLVKGFYPSDIAVEWESNGQPENNYKTTPPVLDSDGSFFLYSKLTVDKSRWQQGNVFSCSVLHEALHNHYTQKSLSLSPG
notes: human IgG1 Fc with L234A, L235A, T250Q, N297A, P331S, M428L and K447 deleted (EU); also called anti-BCMA×CD3 bispecific antibody
In the case of B1, the binding entry is “binds”.
